In patent US6635436B2, “Methods for the screening of non-recombinant cell lines capable of expressing a single PDE4 isoenzyme and for the screening of PDE4 inhibitors” (Warner-Lambert Company, priority 1999, dated 2003):
At least one compound was matched to its structure with a doubt left.

Test system: PDE4 subtypes
Experiment: RT-PCR of PDE4 subtype expression, overall statement
Assay type: cell-based, human
Details: U-937 cells

C[C@@H]1C[C@H]2[C@@H]3CCC4=CC(=O)C=C[C@]4(C)[C@@]3(F)[C@@H](O)C[C@]2(C)[C@@]1(O)C(=O)CO [Dexamethasone, dexamethasone]
effect on PDE4 subtype expression: without effect
